Assay results published in doi:10.1101/2022.08.05.502996.
Results are given in words; binding and its absence hold for the method and conditions named. In cells and extracts the contact can be indirect. Some results given as binding are weak or reduced against the parent protein; the word gives no strength. Sequences can lack the tags named with a protein.

By UniProt entry, the sequences of proteins in these tests, tags left out.
UniProt Q9FX32: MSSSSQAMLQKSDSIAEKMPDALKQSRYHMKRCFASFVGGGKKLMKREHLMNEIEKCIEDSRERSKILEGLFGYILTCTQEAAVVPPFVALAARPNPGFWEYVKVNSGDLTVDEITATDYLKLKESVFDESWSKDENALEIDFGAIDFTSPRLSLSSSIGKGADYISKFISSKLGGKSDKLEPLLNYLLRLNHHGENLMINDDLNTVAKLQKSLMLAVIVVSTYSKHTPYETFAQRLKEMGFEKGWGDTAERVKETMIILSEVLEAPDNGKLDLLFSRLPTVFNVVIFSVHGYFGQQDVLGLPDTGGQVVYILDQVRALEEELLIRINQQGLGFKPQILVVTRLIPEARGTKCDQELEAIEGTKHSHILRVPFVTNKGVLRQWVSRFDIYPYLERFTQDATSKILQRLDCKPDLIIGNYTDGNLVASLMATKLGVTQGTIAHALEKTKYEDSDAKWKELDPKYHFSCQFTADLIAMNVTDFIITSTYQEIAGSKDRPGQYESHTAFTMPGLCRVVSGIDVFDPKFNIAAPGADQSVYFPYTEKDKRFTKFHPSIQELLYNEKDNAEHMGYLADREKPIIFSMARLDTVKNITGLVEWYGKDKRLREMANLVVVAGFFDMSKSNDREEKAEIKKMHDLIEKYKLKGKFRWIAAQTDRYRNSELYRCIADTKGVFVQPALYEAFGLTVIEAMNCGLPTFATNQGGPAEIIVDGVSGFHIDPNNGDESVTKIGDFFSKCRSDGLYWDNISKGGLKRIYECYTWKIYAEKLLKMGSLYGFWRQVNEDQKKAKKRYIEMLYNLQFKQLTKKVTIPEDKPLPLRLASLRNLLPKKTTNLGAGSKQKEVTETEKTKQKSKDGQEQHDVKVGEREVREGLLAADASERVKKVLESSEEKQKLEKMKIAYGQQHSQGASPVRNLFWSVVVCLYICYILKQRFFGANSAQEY

Molecular target: T1, PDLP6-YFP (Arabidopsis thaliana) (UniProt Q9ZU94)
T1 sequence: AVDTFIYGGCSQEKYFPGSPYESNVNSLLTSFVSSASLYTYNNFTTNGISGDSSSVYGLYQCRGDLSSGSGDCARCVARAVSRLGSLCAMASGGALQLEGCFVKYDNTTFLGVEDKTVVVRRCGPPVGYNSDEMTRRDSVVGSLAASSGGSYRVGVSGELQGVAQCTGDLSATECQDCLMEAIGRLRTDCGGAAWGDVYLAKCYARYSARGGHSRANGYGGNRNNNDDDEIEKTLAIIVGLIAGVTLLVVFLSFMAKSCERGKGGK
Assay: co-IP

binding: binds
Substance: SUS6-HF (from UniProt Q9FX32 1-942) (enzyme)
